Numbering of substitutions follows the chain as printed. No constants are given. Whether binding was seen depends on the method and setting. In cells and extracts the contact can be indirect. These calls come from enrichment with a bait or labelling near it, and not all partners need be listed. For part of these data: A no says only that the protein was not detected with the bait. Sequences can lack the tags named with a protein. Values belong to the molecule of their own block, whether it stands above or below them.
How the values were obtained:
[1] = biological target: T1, Drosophila IRP1A in larvae (endogenously Flag-tagged IRP1A^3F as bait; endogenous IRP1A as prey) (Drosophila (endogenous in larvae)) (UniProt Q9VCV4); experiment: condition: only larvae reared for one generation on BPS (iron-depleted) food; affinity purification with mass spectrometry; whole-body larvae of IRP1A^3F flies reared for one generation (G1) on BPS-supplemented (iron-depleted) food; anti-Flag immunoprecipitation
T1 sequence: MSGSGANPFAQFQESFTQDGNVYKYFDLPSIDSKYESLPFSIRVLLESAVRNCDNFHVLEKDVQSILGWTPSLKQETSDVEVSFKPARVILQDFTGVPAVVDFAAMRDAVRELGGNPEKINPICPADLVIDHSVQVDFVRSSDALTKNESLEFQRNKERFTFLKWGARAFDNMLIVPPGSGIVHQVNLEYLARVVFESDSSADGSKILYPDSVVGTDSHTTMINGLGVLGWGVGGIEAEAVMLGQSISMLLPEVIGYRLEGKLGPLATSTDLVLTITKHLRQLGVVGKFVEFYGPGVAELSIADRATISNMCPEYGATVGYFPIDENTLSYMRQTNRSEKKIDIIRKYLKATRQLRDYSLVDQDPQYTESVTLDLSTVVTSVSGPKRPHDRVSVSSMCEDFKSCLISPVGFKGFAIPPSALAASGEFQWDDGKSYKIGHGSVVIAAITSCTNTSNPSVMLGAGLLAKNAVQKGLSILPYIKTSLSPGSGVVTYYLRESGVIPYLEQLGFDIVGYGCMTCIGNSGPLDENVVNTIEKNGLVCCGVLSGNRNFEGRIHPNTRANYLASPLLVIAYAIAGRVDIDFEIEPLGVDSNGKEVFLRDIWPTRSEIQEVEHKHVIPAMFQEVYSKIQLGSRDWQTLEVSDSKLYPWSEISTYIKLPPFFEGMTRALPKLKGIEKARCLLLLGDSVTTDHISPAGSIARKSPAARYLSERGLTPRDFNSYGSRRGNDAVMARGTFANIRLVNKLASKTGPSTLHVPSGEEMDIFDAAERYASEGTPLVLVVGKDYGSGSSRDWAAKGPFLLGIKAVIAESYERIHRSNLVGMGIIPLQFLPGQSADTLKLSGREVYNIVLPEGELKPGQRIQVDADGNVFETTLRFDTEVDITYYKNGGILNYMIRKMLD

Sequences of proteins named here, by UniProt entry; tags and fusion partners are left off.
UniProt P08985: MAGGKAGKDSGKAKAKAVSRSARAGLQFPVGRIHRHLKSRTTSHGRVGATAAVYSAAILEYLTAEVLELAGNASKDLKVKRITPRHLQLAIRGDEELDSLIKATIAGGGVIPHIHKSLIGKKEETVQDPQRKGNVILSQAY

[2] = biological target: T1, Drosophila IRP1A in larvae (endogenously Flag-tagged IRP1A^3F as bait; endogenous IRP1A as prey) (Drosophila (endogenous in larvae)); experiment: affinity purification with mass spectrometry; whole-body L3 larvae with Flag-tagged knock-in alleles (AGBE^FCF, IRP1A^3F, IRP1B^3F) on regular food (IRP1A^3F also after one or two generations on BPS food); 0.2% formaldehyde cross-linking in vivo; anti-Flag M2 affinity gel, 2 h, 4 °C; proteins found in untagged controls removed
[3] = biological target: T1, Drosophila IRP1A in larvae (endogenously Flag-tagged IRP1A^3F as bait; endogenous IRP1A as prey) (Drosophila (endogenous in larvae)); experiment: condition: only larvae reared for two generations on BPS (iron-depleted) food; affinity purification with mass spectrometry; whole-body larvae of IRP1A^3F flies reared for two generations (G2) on BPS-supplemented (iron-depleted) food; anti-Flag immunoprecipitation
[4] = biological target: T1, Drosophila IRP1A in larvae (endogenously Flag-tagged IRP1A^3F as bait; endogenous IRP1A as prey) (Drosophila (endogenous in larvae)); experiment: affinity purification with mass spectrometry; prothoracic gland cells purified from dissected brain-ring gland complexes (CD8.Venus, anti-CD8 beads); 0.2% formaldehyde cross-linking; anti-Flag immunoprecipitation as for whole body
[5] = biological target: T2, transgenic Flag-tagged Drosophila IRP1A C450S expressed in flies (Drosophila) (UniProt Q9VCV4); experiment: affinity purification with mass spectrometry; samples from four fly strains expressing Flag-tagged transgenes IRP1A^C450S, IRP1B^C447S, IRP1A^3R3Q or IRP1B^3R3Q; anti-Flag immunoprecipitation; tissue per sample in Supplementary Table 2
T2 sequence: T1 sequence with C450S

[6] = biological target: T3, Drosophila IRP1B in larvae (endogenously Flag-tagged IRP1B^3F as bait; endogenous IRP1B as prey) (Drosophila (endogenous in larvae)) (UniProt Q9VGZ3); experiment: affinity purification with mass spectrometry; whole-body L3 larvae with Flag-tagged knock-in alleles (AGBE^FCF, IRP1A^3F, IRP1B^3F) on regular food (IRP1A^3F also after one or two generations on BPS food); 0.2% formaldehyde cross-linking in vivo; anti-Flag M2 affinity gel, 2 h, 4 °C; proteins found in untagged controls removed
T3 sequence: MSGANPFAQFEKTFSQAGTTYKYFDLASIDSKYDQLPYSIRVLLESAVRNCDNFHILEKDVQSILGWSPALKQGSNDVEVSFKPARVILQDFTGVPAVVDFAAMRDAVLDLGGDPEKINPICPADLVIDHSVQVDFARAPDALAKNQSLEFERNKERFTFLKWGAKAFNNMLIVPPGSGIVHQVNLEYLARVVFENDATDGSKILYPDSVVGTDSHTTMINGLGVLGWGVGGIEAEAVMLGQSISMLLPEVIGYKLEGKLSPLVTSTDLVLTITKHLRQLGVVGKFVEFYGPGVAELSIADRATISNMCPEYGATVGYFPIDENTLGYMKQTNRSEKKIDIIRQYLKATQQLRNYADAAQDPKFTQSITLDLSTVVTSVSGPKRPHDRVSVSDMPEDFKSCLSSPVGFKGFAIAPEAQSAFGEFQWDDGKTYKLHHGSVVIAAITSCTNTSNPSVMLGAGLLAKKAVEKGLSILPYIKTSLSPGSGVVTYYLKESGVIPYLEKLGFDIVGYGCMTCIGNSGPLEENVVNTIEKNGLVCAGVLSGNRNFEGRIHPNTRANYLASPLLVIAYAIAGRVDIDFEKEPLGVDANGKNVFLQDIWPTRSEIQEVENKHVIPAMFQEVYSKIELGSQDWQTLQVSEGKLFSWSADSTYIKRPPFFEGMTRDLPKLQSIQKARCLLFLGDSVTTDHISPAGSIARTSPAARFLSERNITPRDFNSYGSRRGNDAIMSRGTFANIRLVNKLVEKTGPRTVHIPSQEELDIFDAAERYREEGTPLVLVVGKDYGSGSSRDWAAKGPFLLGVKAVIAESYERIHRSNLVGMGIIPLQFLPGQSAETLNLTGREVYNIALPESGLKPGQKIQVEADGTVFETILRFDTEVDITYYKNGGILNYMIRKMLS

[7] = biological target: T1, Drosophila IRP1A in larvae (endogenously Flag-tagged IRP1A^3F as bait; endogenous IRP1A as prey) (Drosophila (endogenous in larvae)); experiment: as above; remark: listed apart in the source

binding [1]: no binding
binding [2]: binds
binding [3]: no binding
Molecule: Drosophila histone H2Av, endogenous in larvae (from UniProt P08985 1-141)

binding [4]: binds
binding [1]: no binding
binding [5]: no binding
binding [6]: binds
binding [7]: binds
binding [3]: no binding
B1: Drosophila AGBE in larvae (endogenously Flag-tagged AGBE^FCF as bait; endogenous AGBE as prey) (enzyme, UniProt A1Z992 1-685)
chain: MAEAKDIEKLFETDGYLRPFEHEIRRRHGVLEDWLNKINQSEGGLDGFSTAYKHYGLHFQPDNSVIAREWAPGARDVYLTGDFNNWHWESHPFKKLDFGKWELHLPPNEDGSPAIKHLSEIKIIIRNHSGQLLDRLSPWAKYVVQPPKSANQGVNYKQYVWEPPSYERYQRQHPGPPRPKSLRIYECHVGIASQEPRVGSYDEFADRIVPRIKRQGYNCIQVMAIMEHAYYASFGYQVTSFYAASSRYGNPEQLKRMIDVAHSHGLFVLLDVVHSHASKNVQDGLNQFDGTNSCFFHDGARGEHSLWDSRLFNYVEYEVLRFLLSNLRWWHDEYNFDGYRFDGVTSMLYHSRGIGEGFSGDYNEYFGLNVDTDALNYLGLANHLLHTIDSRIITIAEDVSGMPTLCRPVSEGGIGFDYRLGMAIPDKWIELLKEQSDDEWDMGNLVHTLTNRRWMENTVAYAESHDQALVGDKTIAFWLMDKEMYTHMSTLSDSSVIIDRGLALHKMIRLITHALGGEAYLNFMGNEFGHPEWLDFPRVGNNDSYHYARRQWNLVDDDLLKYKYLNEFDRAMNEAEERYGWLHSGPAWVSWKHEGDKIIAFERAGLVFVFNFHPQQSFTGYRVGTNWAGTYQAVLSSDDPLFGGHNRIDANCKHPSNPEGYAGRSNFIEVYTPSRTAVVYARVSD

Source: article PMC6884552, “Glycogen branching enzyme controls cellular iron homeostasis via Iron Regulatory Protein 1 and mitoNEET” (Nature Communications, 2019)
